PubChem BioAssay AID1259254, NCATS | 2017
Aim: 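Finding genes that stop cells copying their DNA twice in one cycle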 (primary screen). System: human HCT116 colorectal cancer cells. Reagents: single siRNA against human genes. Time to read-out: 3 days. Read-out: 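Imaged Hoechst DNA stain sorts each cell into a cycle phase by DNA amount; per plate, G2 fraction set to 0% for non-targeting and 100% for GMNN siRNA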. Reading the numbers: G2 robust z-score and G2 cells, % of GMNN control: higher = more G2 cells, more excess DNA replication. Call rule: 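Active siRNAs have a G2 robust z of 5 or more median absolute deviations over the median, which in these data means about 38% or higher of GMNN control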.
In all, the deposit lists about 59,000 reagents; shown is an unselected part. In the full data, about 1,550 (2.6%) were called active. 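G2 share is only a proxy for re-replication; each gene was hit by three separate siRNAs, and active genes were retested.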 Reagents against one gene are numbered here. Not all columns of the deposit are shown. Not given: the amount of reagent.

LINS1 (lines homolog 1) #1 showed G2 robust z-score -0.407; G2 cells, % of GMNN control 0.102; inactive.
Knock-down of LINS1 (lines homolog 1) #2 resulted in: G2 robust z-score 2.32; G2 cells, % of GMNN control 19.3; inactive.
Silencing of LINS1 (lines homolog 1) #3 resulted in: G2 robust z-score 2.55; G2 cells, % of GMNN control 20.9; inactive.
ESRP2 (epithelial splicing regulatory protein 2) #1 showed G2 robust z-score -1.31; G2 cells, % of GMNN control -6.22; inactive.
Against ESRP2 (epithelial splicing regulatory protein 2) #2, the values are G2 robust z-score 1.93; G2 cells, % of GMNN control 16.6; inactive.
Against ESRP2 (epithelial splicing regulatory protein 2) #3, the values are G2 robust z-score 0.735; G2 cells, % of GMNN control 8.14; inactive.
SLC47A1 #1 showed G2 robust z-score 0.24; G2 cells, % of GMNN control 4.66; inactive.
Depletion of SLC47A1 #2 gave: G2 robust z-score -0.677; G2 cells, % of GMNN control -1.79; inactive.
With knock-down of SLC47A1 #3, the screen gave G2 robust z-score 0.0192; G2 cells, % of GMNN control 3.1; inactive.

In a second layout: entries from further up.
gene	reagent no.	G2 robust z-score	G2 cells, % of GMNN control	call
SLC47A1	2	-0.677	-1.79	inactive
SLC47A1	3	0.0192	3.1	inactive

Additional entries follow.
With knock-down of LINC02499 (long independently transcribed non-coding RNA 2499) #1, the screen gave G2 robust z-score 0.735; G2 cells, % of GMNN control 8.14; inactive.
Against LINC02499 (long independently transcribed non-coding RNA 2499) #2, the entry reads G2 robust z-score -0.168; G2 cells, % of GMNN control 1.79; inactive.
LINC02499 (long independently transcribed non-coding RNA 2499) #3 gave G2 robust z-score 0.816; G2 cells, % of GMNN control 8.71; inactive.
ALDH8A1 (aldehyde dehydrogenase 8 family member A1) #1 scored G2 robust z-score 0.49; G2 cells, % of GMNN control 6.41; inactive.
Against ALDH8A1 (aldehyde dehydrogenase 8 family member A1) #2 the deposit lists G2 robust z-score 0.269; G2 cells, % of GMNN control 4.86; inactive.
For ALDH8A1 (aldehyde dehydrogenase 8 family member A1) #3, the values are G2 robust z-score 2.13; G2 cells, % of GMNN control 18; inactive.
After knock-down of MYO7A (myosin VIIA) #1, the screen gave G2 robust z-score -0.464; G2 cells, % of GMNN control -0.295; inactive.
After knock-down of MYO7A (myosin VIIA) #2, the record shows G2 robust z-score -1.02; G2 cells, % of GMNN control -4.23; inactive.
Knock-down of MYO7A (myosin VIIA) #3 resulted in: G2 robust z-score 4.74; G2 cells, % of GMNN control 36.3; inactive.
